Measured values: the supplement of paper PMC9744312
Counter-ions that a name gives are not always drawn. The list shows a part of the results. This is a noisy data set.

The compounds below were run on Peyronie's disease tunica albuginea primary fibroblasts (assay: inhibition of TGF-beta1-induced alpha-SMA expression (myofibroblast transformation), relative to TGF-beta1-only and untreated controls; higher = stronger inhibition of myofibroblast transformation). Conditions: 10 µM; TGF-beta1 10 ng/mL; 72 h.

| SMILES | inhibition of TGF-beta1-induced alpha-SMA expression [%] |
| --- | --- |
| CCC[C@@H]1C[C@@H](C(=O)N[C@@H]([C@H]2O[C@H](SC)[C@H](O)[C@@H](O)[C@H]2O)[C@@H](C)O)N(C)C1 [Lincomycin Hydrochloride Monohydrate] | -6.71 |
| CO[C@H]1C[C@@H]2CC[C@@H](C)[C@@](O)(O2)C(=O)C(=O)N2CCCC[C@H]2C(=O)O[C@H]([C@H](C)C[C@@H]2CC[C@@H](OC(=O)C(C)(CO)CO)[C@H](OC)C2)CC(=O)[C@H](C)/C=C(\C)[C@@H](O)[C@@H](OC)C(=O)[C@H](C)C[C@H](C)/C=C/C=C/C=C/1C | -19.2 |
| CN1CCCN=C1/C=C/c1cccs1 [Pyrantel Pamoate] | 21.3 |
| NNC(=O)c1ccncc1 [Isoniazid] | 22 |
| C[C@H]1C[C@H]2[C@@H]3CCC4=CC(=O)C=C[C@]4(C)[C@H]3C(=O)C[C@]2(C)[C@@]1(O)C(=O)CO [Meprednisone] | 55.4 |
| CCC(=O)OCC(=O)[C@@]1(OC(=O)CC)[C@@H](C)C[C@H]2[C@@H]3CCC4=CC(=O)C=C[C@]4(C)[C@@]3(F)[C@@H](O)C[C@@]21C [Betamethasone Dipropionate] | 57.7 |
| O=C(O)CCCN1CCC(O[C@@H](c2ccc(Cl)cc2)c2ccccn2)CC1 [Bepotastine Besilate] | 12.8 |
| O=C(O)c1cccnc1 [Nicotinic Acid] | 26.6 |
| CCCCc1oc2ccccc2c1C(=O)c1cc(I)c(OCCN(CC)CC)c(I)c1 [Amiodarone HCl] | 47.7 |
| Cc1cnc(C(=O)N[C@H]2CCCCC/C=C\[C@@H]3C[C@@]3(C(=O)NS(=O)(=O)C3CC3)NC(=O)[C@@H]3C[C@@H](Oc4nc5ccccc5c5ccccc45)CN3C2=O)cn1 [Paritaprevir (ABT-450)] | 26 |
| O=c1[nH]c(=O)n([C@H]2C[C@H](O)[C@@H](CO)O2)cc1I [Idoxuridine] | 8.32 |
| CN1CCN(c2ccc3nc(-c4c(N)c5c(F)cccc5[nH]c4=O)[nH]c3c2)CC1 [Dovitinib (TKI258) Lactate] | 77.3 |
| CN1CCN(c2ccc3nc(-c4c(N)c5c(F)cccc5[nH]c4=O)[nH]c3c2)CC1 [Dovitinib (TKI-258, CHIR-258)] | -10.9 |
| C=CCNC1=C2C[C@@H](C)C[C@H](OC)[C@H](O)[C@@H](C)/C=C(\C)[C@H](OC(N)=O)[C@@H](OC)/C=C\C=C(/C)C(=O)NC(=CC1=O)C2=O [Tanespimycin (17-AAG)] | > 100 |
| Cc1cccc(N(C)C(=S)Oc2ccc3ccccc3c2)c1 [Tolnaftate] | 16.3 |
| CCN1CCCC1CNC(=O)c1cc(S(N)(=O)=O)ccc1OC (stereo not drawn) [Sulpiride] | -51.4 |
| COc1ccc(-c2ccc3cc(C(=O)O)ccc3c2)cc1C12CC3CC(CC(C3)C1)C2 [Adapalene] | 61.6 |

| SMILES | inhibition of TGF-beta1-induced alpha-SMA expression [%] |
| --- | --- |
| NCCc1ccc(O)c(O)c1 [Dopamine HCl] | 39.1 |
| C[C@H](CS)C(=O)N1CCC[C@H]1C(=O)O [Captopril] | -21.3 |
| CN(Cc1cc(Br)cc(Br)c1N)C1CCCCC1 [Bromhexine HCl] | 21.7 |
| COC(=O)N[C@H](C(=O)N1CC2(CC2)C[C@H]1c1nc(-c2ccc3c(c2)C(F)(F)c2cc(-c4ccc5[nH]c([C@@H]6[C@H]7CC[C@H](C7)N6C(=O)[C@@H](NC(=O)OC)C(C)C)nc5c4)ccc2-3)c[nH]1)C(C)C [Ledipasvir (GS5885)] | 3.16 |
| COc1ccc(CNc2nc(N3CCC[C@H]3CO)ncc2C(=O)NCc2ncccn2)cc1Cl [Avanafil] | 14.2 |
| CC(=O)OCC(=O)[C@@]1(O)CC[C@H]2[C@@H]3CCC4=CC(=O)C=C[C@]4(C)[C@H]3[C@@H](O)C[C@@]21C [Prednisolone Acetate] | 44.3 |
| Cc1c(Nc2ncccc2C(=O)O)cccc1C(F)(F)F [Flunixin Meglumin] | 39.9 |
| CC[C@H](c1ccc(O)cc1)[C@@H](CC)c1ccc(O)cc1 [Hexestrol] | 14.5 |
| OC[C@@H](O)CN1CCN(c2ccccc2)CC1 [Levodropropizine] | 17.6 |
| N#CC1(c2ccc(NC(=O)c3cccnc3NCc3ccncc3)cc2)CCCC1 | -27.8 |
| C=CC[N+]1([C@H]2C[C@H]3[C@@H]4CC[C@H]5C[C@H](O)[C@@H](N6CCOCC6)C[C@]5(C)[C@H]4CC[C@]3(C)[C@H]2OC(C)=O)CCCC1 [Rocuronium Bromide] | 17.3 |
| CC(C)(C)NC(=O)[C@H]1CC[C@H]2[C@@H]3CC[C@H]4NC(=O)C=C[C@]4(C)[C@H]3CC[C@]12C [Finasteride] | 18.4 |
| Nc1nc(N)c2nc(-c3ccccc3)c(N)nc2n1 [Triamterene] | 21.9 |
| C=C1CC[C@H](O)C/C1=C/C=C1\CCC[C@]2(C)[C@@H]([C@H](C)/C=C/[C@H](C)C(C)C)CC[C@@H]12 [Vitamin D2] | -0.924 |
| CCCCOc1ccc(C(=O)CCN2CCCCC2)cc1 [Dyclonine HCl] | 17.6 |
| Cn1nnc2c(C(N)=O)ncn2c1=O [Temozolomide] | 22.1 |

Taken from the entries so far (two entries):

| SMILES | inhibition of TGF-beta1-induced alpha-SMA expression [%] |
| --- | --- |
| COc1ccc(CNc2nc(N3CCC[C@H]3CO)ncc2C(=O)NCc2ncccn2)cc1Cl [Avanafil] | 14.2 |
| CC(=O)OCC(=O)[C@@]1(O)CC[C@H]2[C@@H]3CCC4=CC(=O)C=C[C@]4(C)[C@H]3[C@@H](O)C[C@@]21C [Prednisolone Acetate] | 44.3 |
